Consider one molecule from doi:10.1101/808782.

Sequences of proteins named here, by UniProt entry; tags and fusion partners are left off. A change or cut given only in a name is not applied to a line headed by its entry.
UniProt P60953: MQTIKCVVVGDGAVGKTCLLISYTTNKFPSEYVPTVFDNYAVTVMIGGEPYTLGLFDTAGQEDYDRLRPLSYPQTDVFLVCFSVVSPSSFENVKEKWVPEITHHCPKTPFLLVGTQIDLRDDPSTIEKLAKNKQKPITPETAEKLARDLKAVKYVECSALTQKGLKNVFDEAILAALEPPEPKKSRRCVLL

The target of assay [1] is GFP-tagged Cdc42 C188S (human) (UniProt P60953). Description: co-IP.
In assay [2] the target is GFP-tagged wild-type Cdc42 (human) (UniProt P60953). The experiment in a line: co-IP.

No constants are given. Whether binding was seen depends on the method and setting. Binding seen in cells or lysates may run through a third protein. Some binding calls cover weakened binding; strength is not graded here.

B1: GDP dissociation inhibitor GDI1 (protein, UniProt P52565 1-204)
chain: MAEQEPTAEQLAQIAAENEEDEHSVNYKPPAQKSIQEIQELDKDDESLRKYKEALLGRVAVSADPNVPNVVVTGLTLVCSSAPGPLELDLTGDLESFKKQSFVLKEGVEYRIKISFRVNREIVSGMKYIQHTYRKGVKIDKTDYMVGSYGPRAEEYEFLTPVEEAPKGMLARGSYSIKSRFTDDDKTDHLSWEWNLTIKKDWKD
With B1, the binding result in assay [1] is “no binding”; in assay [2], “binds”.
